Assay results reported in patent US10702592B2, “Peptides and combination of peptides for use in immunotherapy against NHL and other cancers” (Immatics Biotechnologies GmbH, priority 2016, dated 2020).

How the values were obtained:
NHL samples = assay: Identification and label-free LC-MS quantitation of HLA-presented peptides: presentation profile/score, NHL vs normal tissues; design: species or system human; key: very highly over-presented on tumors compared to a panel of normal tissues (+++); highly over-presented on tumors compared to a panel of normal tissues (++); over-presented on tumors compared to a panel of normal tissues (+); conditions: NHL tumors compared to a panel of normal tissues
[1] = system: other tumor types (tumor samples vs normal tissues); assay: LC-MS detection / over-presentation of peptides on additional tumor types; design: species or system human; conditions: for Other relevant organs/diseases: additional tumor types on which the peptide was found: over-presented on more than 5% of measured tumor samples, or presented on more than 5% with ratio of geometric means tumor vs normal tissues larger than 3; for Other relevant organs / diseases (additional tumor types with over-presentation): over-presented on >5% of measured tumor samples, or presented on >5% with ratio of geometric means tumor vs normal >3

Row | Substance | Peptide Presentation (NHL samples) | Other relevant organs/diseases [1] | Other relevant organs / diseases (additional tumor types with over-presentation) [1]
1 | 165 (KLLEEIEFL; listed as Homo sapiens) [compound 165] | ++ | RCC, AML, BRCA, Melanoma, Esophageal Cancer, Gallbladder Cancer, Bile Duct Cancer | 
2 | 270 (VVVDSDSLAFV; listed as Homo sapiens) [compound 270] | +++ | SCLC, CLL, Melanoma, Uterine Cancer, Gallbladder Cancer, Bile Duct Cancer | 
3 | 280 (SLLNHLPYL; listed as Homo sapiens) [compound 280] | +++ | CLL | HNSCC
4 | 86 (GLATIRAYL; listed as Homo sapiens) [compound 86] | +++ | RCC, Melanoma, Uterine Cancer | 
5 | 100 (RLIRTIAAI; listed as Homo sapiens) [compound 100] | +++ | RCC | 
6 | 87 (GLFARIIMI; listed as Homo sapiens) [compound 87] | +++ | Gallbladder Cancer, Bile Duct Cancer | 
7 | 267 (SLLETGSDLLL; listed as Homo sapiens) [compound 267] | +++ | HCC, Esophageal Cancer | Urinary Bladder Cancer, AML
8 | 254 (FLYSETWNI; listed as Homo sapiens) [compound 254] | +++ | HCC, CLL, AML, Melanoma | HNSCC
9 | 94 (LLAGQATTAYF; listed as Homo sapiens) [compound 94] | +++ | RCC | 
10 | 117 (VLATILAQL; listed as Homo sapiens) [compound 117] | +++ | SCLC, AML, Uterine Cancer | 
11 | 38 (YLTAEILELAGN; listed as Homo sapiens) [compound 38] | +++ | NSCLC, SCLC, CRC, HCC, BRCA, Melanoma, Urinary bladder cancer, Uterine Cancer, Gallbladder Cancer, Bile Duct Cancer | HNSCC
12 | 102 (SLFAAISGMIL; listed as Homo sapiens) [compound 102] | +++ | CLL | 
13 | 3 (LTIDTQYYL; listed as Homo sapiens) [compound 3] | +++ | CLL, Uterine Cancer | HNSCC
14 | 21 (ALFKEAYSL; listed as Homo sapiens) [compound 21] | +++ | Esophageal Cancer | 
15 | 236 (SLFDGFFLTA; listed as Homo sapiens) [compound 236] | + | CLL, AML, Melanoma, Uterine Cancer | RCC, GC
16 | 125 (FVAPPTAAV; listed as Homo sapiens) [compound 125] | +++ | Melanoma, Urinary bladder cancer, Uterine Cancer | 

Row | Substance | Peptide Presentation (NHL samples) | Other relevant organs/diseases [1] | Other relevant organs / diseases (additional tumor types with over-presentation) [1]
17 | 237 (YLDRLIPQA; listed as Homo sapiens) [compound 237] | ++ | HCC, AML, Melanoma | 
18 | 10 (FLLVGTQIDL; listed as Homo sapiens) [compound 10] | +++ | CLL, BRCA, Uterine Cancer | 
19 | 121 (YLTGYNFTL; listed as Homo sapiens) [compound 121] | +++ | Uterine Cancer | AML
20 | 36 (VILDIPLLFET; listed as Homo sapiens) [compound 36] | +++ | CLL, BRCA, Melanoma, Uterine Cancer | SCLC, AML, HNSCC
21 | 80 (YLFDEIDQA; listed as Homo sapiens) [compound 80] | +++ | CLL, AML, Uterine Cancer | 
22 | 116 (SLLDNLLTI; listed as Homo sapiens) [compound 116] | + | HCC, CLL, AML, Melanoma | 
23 | 108 (YLAPENGYLM; listed as Homo sapiens) [compound 108] | +++ | SCLC, CRC, HCC, BRCA, Melanoma, OC, Urinary bladder cancer, Gallbladder Cancer, Bile Duct Cancer | Uterine Cancer, AML, HNSCC
24 | 118 (VLDGMIYAI; listed as Homo sapiens) [compound 118] | +++ | Uterine Cancer | 
25 | 64 (FLVEVSNDV; listed as Homo sapiens) [compound 64] | ++ | CLL, Uterine Cancer | 
26 | 20 (YLIAGGDRWL; listed as Homo sapiens) [compound 20] | +++ | NSCLC, RCC, CLL, BRCA, Melanoma | 
27 | 83 (FLMDDNMSNTL; listed as Homo sapiens) [compound 83] | +++ | Melanoma | 
28 | 222 (FLIETGTLL; listed as Homo sapiens) [compound 222] | + | CLL, BRCA, Uterine Cancer | 
29 | 194 (SLAPFDREPFTL; listed as Homo sapiens) [compound 194] | +++ | NSCLC | Melanoma, Gallbladder Cancer, Bile Duct Cancer, HNSCC
30 | 200 (YLLDFEDRL; listed as Homo sapiens) [compound 200] | + | CLL | 
31 | 168 (SLLSPLLSV; listed as Homo sapiens) [compound 168] | +++ |  | HNSCC
32 | 152 (KIMYTLVSV; listed as Homo sapiens) [compound 152] | +++ | HCC | AML
